In US20100041873A1:
Like-named read-outs stand apart in the source and are kept apart here. Results are given in words; binding and its absence hold for the method and conditions named. For some assays here: Binding can be weak; no strength is given.

Tests used:
[1] = target: Recombinant human IL-21 (human); assay: SPR (Biacore T100), mAb immobilized, 100 nM IL-21
[2] = target: Recombinant human IL-21 (human); assay: direct ELISA
[3] = target: Recombinant human IFN-λ (human); assay: Western blot
[4] = target: Recombinant human IL-21 (human); assay: Western blot
[5] = target: Recombinant human IFN-λ (human); assay: Western blot; remark: listed apart in the source

binding [1]: binds
binding [2]: binds
binding [3]: no binding
binding [4]: binds
binding [5]: no binding (tested: 10 or 100 ng/ml mAb)
B1: Human anti-human IL-21 monoclonal antibody 366.552.11 (antibody, V domains shown)
VH: QVQLQESGPGLVKPSETLSLTCTVSGGSISSDFWGWIRQPPGKGLEWIGYISSRGSTNYNPSLKRRVTISVDTSRNQFSLKLSSVTAADTAVYYCARSAGVTDFDFWGQGTLVTVSS
VL: DIQMTQSPSSVSASVGDRVTITCRASQGISSWLAWYQHKPGKAPKLLIYVASSLQSGVPSRFSGSGSGTDFTLTISSLQPEDFATYYCQQANSFPLTFGGGTKVEIK
